Laboratory results published in the supplement of paper PMC10849652.
The other results are listed elsewhere or left out.

Protein sequences, listed by entry. Tags and fused reporters are not part of them. Lines headed by an entry give the natural chain unless they say otherwise; changes in a name come on top.
UniProt O15084: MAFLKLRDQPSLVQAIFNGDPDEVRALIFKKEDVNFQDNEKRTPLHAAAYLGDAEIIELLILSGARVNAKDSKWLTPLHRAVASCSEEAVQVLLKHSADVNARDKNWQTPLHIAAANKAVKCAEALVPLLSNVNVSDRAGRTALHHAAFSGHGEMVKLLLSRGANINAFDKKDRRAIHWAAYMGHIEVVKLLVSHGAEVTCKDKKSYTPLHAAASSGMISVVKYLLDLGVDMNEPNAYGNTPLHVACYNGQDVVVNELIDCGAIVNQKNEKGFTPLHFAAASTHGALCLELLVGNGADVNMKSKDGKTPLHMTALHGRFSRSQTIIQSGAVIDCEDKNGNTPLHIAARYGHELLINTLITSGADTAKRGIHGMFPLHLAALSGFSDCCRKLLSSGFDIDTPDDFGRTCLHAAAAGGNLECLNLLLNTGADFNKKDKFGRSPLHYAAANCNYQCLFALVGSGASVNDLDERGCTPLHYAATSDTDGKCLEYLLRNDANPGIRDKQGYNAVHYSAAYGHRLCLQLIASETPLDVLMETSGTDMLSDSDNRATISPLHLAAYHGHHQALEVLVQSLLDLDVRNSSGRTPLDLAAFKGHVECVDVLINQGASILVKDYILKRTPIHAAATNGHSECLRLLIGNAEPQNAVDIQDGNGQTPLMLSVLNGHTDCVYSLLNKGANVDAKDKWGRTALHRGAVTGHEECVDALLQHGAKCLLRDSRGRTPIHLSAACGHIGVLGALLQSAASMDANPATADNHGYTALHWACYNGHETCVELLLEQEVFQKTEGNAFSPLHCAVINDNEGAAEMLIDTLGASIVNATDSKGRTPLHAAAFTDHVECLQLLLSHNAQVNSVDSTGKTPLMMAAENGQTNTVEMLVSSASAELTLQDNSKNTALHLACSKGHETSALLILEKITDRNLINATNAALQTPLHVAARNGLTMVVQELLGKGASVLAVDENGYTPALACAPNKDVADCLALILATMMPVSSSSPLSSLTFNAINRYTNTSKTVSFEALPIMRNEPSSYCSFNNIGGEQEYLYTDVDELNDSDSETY
UniProt Q8IV38: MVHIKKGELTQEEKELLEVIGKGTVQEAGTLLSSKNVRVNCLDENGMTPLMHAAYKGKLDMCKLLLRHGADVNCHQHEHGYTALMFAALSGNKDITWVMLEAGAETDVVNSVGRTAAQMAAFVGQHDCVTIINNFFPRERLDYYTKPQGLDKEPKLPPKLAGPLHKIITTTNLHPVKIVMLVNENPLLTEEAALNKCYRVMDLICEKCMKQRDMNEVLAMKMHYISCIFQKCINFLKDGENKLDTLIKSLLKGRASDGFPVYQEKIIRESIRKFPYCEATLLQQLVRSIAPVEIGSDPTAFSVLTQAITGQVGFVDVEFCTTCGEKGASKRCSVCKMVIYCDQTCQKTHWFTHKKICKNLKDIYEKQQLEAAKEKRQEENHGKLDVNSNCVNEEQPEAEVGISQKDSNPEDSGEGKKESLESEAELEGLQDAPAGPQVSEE
UniProt P31751: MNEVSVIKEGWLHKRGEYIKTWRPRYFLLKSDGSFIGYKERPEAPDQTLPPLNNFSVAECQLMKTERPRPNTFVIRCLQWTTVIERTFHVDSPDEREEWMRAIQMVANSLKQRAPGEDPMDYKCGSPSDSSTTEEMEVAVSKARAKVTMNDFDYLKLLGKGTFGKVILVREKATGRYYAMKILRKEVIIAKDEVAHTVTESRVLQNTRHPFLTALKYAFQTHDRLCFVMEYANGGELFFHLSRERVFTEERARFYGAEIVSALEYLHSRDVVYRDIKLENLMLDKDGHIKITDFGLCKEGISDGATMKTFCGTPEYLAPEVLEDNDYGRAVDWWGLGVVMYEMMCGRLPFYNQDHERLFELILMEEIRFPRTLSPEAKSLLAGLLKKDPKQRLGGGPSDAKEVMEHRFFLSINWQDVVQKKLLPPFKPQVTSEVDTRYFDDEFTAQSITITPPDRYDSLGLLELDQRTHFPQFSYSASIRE
UniProt Q8IWZ3: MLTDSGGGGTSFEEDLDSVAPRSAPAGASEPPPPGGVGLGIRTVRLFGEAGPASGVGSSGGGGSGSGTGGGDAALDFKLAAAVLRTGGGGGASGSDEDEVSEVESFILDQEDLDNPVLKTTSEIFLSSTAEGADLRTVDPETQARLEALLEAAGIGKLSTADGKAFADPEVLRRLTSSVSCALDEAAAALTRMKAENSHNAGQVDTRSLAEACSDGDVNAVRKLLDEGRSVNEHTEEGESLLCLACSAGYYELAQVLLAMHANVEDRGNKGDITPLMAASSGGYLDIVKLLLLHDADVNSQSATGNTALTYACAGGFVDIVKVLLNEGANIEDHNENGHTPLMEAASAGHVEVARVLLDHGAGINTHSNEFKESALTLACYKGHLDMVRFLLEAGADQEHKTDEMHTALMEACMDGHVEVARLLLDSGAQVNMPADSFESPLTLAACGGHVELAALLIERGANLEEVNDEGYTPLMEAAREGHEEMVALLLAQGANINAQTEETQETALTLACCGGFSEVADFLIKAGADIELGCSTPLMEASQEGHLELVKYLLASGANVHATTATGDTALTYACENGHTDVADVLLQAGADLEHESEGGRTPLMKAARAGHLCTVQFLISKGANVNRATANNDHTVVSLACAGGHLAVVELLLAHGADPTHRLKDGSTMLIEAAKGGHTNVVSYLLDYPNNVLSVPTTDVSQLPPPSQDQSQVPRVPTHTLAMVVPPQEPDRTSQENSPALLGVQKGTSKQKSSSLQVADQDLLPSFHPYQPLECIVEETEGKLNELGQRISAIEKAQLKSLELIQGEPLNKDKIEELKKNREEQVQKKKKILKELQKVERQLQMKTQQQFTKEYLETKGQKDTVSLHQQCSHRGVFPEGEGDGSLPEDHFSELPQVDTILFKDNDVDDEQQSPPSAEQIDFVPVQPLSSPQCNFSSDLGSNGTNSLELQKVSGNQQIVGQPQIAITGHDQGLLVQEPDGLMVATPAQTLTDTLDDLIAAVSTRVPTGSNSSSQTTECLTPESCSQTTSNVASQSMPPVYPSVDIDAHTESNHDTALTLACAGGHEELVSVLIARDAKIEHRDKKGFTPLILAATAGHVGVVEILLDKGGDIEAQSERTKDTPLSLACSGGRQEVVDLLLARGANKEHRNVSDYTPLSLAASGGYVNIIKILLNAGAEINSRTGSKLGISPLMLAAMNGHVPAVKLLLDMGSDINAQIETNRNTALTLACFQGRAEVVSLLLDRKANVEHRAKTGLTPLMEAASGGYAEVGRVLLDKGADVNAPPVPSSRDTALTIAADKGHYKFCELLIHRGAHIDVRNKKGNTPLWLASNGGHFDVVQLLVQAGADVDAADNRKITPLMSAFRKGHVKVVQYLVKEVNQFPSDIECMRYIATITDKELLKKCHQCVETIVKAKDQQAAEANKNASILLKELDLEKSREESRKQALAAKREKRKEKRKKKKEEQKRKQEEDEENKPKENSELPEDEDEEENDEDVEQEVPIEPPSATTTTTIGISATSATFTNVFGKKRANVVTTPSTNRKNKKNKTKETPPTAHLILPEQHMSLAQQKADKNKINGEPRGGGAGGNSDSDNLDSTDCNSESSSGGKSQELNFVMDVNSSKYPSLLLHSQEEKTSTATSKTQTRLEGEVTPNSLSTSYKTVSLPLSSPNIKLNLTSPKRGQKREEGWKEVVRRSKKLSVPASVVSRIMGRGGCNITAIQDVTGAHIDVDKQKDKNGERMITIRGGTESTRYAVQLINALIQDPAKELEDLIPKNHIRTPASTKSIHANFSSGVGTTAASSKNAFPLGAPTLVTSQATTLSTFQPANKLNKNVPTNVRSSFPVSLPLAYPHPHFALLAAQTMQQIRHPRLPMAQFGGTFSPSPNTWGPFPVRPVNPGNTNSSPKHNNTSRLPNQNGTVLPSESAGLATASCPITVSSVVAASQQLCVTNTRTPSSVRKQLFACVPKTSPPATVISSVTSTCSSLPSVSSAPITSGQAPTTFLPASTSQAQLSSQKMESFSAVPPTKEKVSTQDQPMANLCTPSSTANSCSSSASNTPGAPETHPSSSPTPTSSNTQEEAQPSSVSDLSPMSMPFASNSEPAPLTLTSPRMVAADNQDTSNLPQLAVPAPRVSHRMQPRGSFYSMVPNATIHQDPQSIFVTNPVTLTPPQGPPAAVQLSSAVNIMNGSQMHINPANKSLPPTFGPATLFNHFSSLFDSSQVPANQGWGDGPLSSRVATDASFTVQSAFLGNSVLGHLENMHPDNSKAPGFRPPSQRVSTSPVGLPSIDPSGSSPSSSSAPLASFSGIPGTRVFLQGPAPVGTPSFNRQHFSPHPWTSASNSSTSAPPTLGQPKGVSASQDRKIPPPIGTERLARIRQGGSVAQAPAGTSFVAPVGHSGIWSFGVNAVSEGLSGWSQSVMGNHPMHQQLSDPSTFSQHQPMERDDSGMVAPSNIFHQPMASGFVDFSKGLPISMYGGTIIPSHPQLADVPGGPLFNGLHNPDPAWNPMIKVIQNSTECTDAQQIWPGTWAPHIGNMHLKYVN
UniProt P17707: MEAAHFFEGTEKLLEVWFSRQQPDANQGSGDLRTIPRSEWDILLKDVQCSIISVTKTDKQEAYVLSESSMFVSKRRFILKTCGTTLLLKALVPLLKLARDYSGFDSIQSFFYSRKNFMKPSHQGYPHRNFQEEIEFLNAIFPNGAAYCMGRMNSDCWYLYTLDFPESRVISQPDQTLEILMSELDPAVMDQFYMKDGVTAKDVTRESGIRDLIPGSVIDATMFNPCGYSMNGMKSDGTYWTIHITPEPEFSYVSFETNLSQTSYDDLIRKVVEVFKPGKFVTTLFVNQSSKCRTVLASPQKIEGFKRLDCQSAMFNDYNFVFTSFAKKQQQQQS
UniProt Q4KMQ2: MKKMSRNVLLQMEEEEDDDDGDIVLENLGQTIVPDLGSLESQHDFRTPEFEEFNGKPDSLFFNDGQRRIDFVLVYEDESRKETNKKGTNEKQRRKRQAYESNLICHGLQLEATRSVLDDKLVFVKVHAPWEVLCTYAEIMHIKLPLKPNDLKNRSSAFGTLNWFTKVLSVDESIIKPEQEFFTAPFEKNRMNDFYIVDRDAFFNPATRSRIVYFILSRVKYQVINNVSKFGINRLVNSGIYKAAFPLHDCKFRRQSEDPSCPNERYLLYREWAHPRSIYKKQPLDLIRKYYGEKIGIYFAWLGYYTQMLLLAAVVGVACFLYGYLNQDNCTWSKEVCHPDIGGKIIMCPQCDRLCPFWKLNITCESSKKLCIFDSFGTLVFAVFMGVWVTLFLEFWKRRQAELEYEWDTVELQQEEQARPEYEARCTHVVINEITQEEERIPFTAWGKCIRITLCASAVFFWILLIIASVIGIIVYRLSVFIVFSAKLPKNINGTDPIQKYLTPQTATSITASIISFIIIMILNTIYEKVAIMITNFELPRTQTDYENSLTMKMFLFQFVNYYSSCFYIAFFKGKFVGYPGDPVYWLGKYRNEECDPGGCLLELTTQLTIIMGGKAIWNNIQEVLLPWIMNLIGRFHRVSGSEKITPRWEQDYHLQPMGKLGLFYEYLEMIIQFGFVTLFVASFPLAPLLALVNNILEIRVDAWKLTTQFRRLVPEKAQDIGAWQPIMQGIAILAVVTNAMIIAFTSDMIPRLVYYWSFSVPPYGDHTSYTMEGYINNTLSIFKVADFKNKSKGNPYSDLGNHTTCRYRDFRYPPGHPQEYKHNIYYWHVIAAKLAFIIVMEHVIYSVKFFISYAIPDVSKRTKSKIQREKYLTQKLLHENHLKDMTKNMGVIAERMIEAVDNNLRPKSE
UniProt Q9UJX6, whole entry, looked up: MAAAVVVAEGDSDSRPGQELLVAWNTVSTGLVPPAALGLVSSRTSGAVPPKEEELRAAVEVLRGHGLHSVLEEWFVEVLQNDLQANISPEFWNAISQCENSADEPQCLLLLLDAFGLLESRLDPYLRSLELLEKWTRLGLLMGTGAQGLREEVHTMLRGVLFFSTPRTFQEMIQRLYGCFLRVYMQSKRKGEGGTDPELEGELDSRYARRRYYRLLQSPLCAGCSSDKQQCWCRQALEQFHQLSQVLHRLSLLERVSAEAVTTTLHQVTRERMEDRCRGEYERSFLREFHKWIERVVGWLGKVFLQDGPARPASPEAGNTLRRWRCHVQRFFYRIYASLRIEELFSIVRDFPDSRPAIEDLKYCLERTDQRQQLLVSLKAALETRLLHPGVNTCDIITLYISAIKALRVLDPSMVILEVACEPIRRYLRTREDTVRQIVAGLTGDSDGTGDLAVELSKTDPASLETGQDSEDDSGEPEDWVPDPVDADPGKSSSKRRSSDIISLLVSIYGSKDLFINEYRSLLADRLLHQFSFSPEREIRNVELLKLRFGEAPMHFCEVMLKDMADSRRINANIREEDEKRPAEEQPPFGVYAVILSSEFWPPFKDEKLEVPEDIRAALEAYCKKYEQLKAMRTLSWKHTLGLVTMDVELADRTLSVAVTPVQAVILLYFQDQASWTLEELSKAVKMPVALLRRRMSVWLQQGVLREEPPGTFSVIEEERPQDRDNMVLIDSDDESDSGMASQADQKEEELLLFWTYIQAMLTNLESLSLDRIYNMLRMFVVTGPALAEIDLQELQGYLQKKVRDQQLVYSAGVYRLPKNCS

Compound: NC(=O)Nc1cc(-c2cccc(F)c2)sc1C(=O)N[C@H]1CCCNC1
Test: log2 fold change, soluble protein after heating vs DMSO (PISA); higher = thermal stabilisation; K562 lysate, 10 uM; active = over 0.2 and 3.5 SD of the protein, either way, in both replicates (recomputed)
Procedure, shortened: (§1)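 Soluble protein was defined as the supernatant remaining after 21,000xg for 90 min, following pooling of heated aliquots and adjustment to 0.5% NP-40 at 4°C. Before that, crude K562 extract at 1 mg/mL protein in PBS pH 7.4 with 1 mM MgCl2 was treated with 10 μM compound for 30 min and heated for 3 min across 48°C-58°C. Quantification used TMTpro 16plex LC-MS/MS with channel sums equalised, and values are log-two fold changes in thermal stability relative to solvent controls from duplicates.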

log2 fold change, inactive:
ANKRD49 (UniProt Q8WVL7) 0.011
AP2S1 (UniProt P53680) -0.011
ANXA2 isoform 2 (UniProt P07355) -0.018
ANKRD28 (UniProt O15084) -0.012
ALDH16A1 (UniProt Q8IZ83) 0
ANKMY2 (UniProt Q8IV38) 0.028
AP1G1 isoform 2 (UniProt O43747) -0.007
ANKRD52 (UniProt Q8NB46) 0.005
ALDH2 (UniProt P05091) 0.001
ANK3 (UniProt Q12955) 0.017
AP1S2 isoform 2 (UniProt P56377) 0.03
ANXA6 (UniProt P08133) 0.02
ALAD (UniProt P13716) -0.007
AKT2 (UniProt P31751) 0.019
ANKS1A (UniProt Q92625) -0.002
ANO10 (UniProt Q9NW15) 0.015
ANKRD29 (UniProt Q8N6D5) 0.116
ALKBH8 isoform 4 (UniProt Q96BT7) 0.049
ALDH1A2 (UniProt O94788) -0.012
ANKHD1 isoform 6 (UniProt Q8IWZ3) 0.044
ALDOA (UniProt P04075) -0.015
AP2M1 (UniProt Q96CW1) -0.03

Compound: NC(=O)c1cnc(N[C@@H]2CCCC[C@@H]2N)nc1Nc1cccc(-n2nccn2)c1
Test: as above
Procedure, shortened: as §1

log2 fold change, inactive:
ALDH4A1 (UniProt P30038) -0.003
ALG8 (UniProt Q9BVK2) -0.025
AP3M1 (UniProt Q9Y2T2) -0.005
ALS2 (UniProt Q96Q42) 0.041
ANXA7 (UniProt P20073) -0.012
ALKBH2 (UniProt Q6NS38) -0.139
ANKRD13D isoform 3 (UniProt Q6ZTN6) -0.019
AMD1 (UniProt P17707) 0.229
AKT1S1 isoform 3 (UniProt Q96B36) 0
ANO6 (UniProt Q4KMQ2) -0.003
ANAPC2 (UniProt Q9UJX6) 0.003
ANP32E (UniProt Q9BTT0) -0.065
ANKRD49 (UniProt Q8WVL7) 0.007
AP2S1 (UniProt P53680) 0.017
ANXA2 isoform 2 (UniProt P07355) -0.015
ANKRD28 (UniProt O15084) 0.009
ALDH16A1 (UniProt Q8IZ83) -0.026
ANKMY2 (UniProt Q8IV38) -0.028
AP1G1 isoform 2 (UniProt O43747) -0.002
ANKRD52 (UniProt Q8NB46) -0.056
ALDH2 (UniProt P05091) 0.016
ANK3 (UniProt Q12955) 0
AP1S2 isoform 2 (UniProt P56377) 0
ANXA6 (UniProt P08133) 0.007
ALAD (UniProt P13716) -0.028
AKT2 (UniProt P31751) -0.015
ANKS1A (UniProt Q92625) -0.011
ANO10 (UniProt Q9NW15) -0.005
ANKRD29 (UniProt Q8N6D5) 0.043
ALKBH8 isoform 4 (UniProt Q96BT7) 0.037
ALDH1A2 (UniProt O94788) -0.008
ANKHD1 isoform 6 (UniProt Q8IWZ3) 0.016
ALDOA (UniProt P04075) -0.027
AP2M1 (UniProt Q96CW1) -0.018
